We go through two molecules from article PMC4519308.

No constants are given. Whether binding was seen depends on the method and setting. In cells and extracts the contact can be indirect. Some binding calls cover weakened binding; strength is not graded here. For part of these data: Sequences can lack the tags named with a protein.

Assay [1] addresses T1, FLAGBak (mouse) (UniProt O08734).
T1 sequence: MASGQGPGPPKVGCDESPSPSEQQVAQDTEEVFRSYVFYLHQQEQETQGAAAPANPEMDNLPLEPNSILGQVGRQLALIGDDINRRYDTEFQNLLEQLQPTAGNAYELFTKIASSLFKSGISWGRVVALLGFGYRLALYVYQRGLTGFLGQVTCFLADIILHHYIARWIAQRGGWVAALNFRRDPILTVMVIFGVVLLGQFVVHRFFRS
As to the kind of experiment: co-IP; HEK293T co-transfected with the two tagged constructs; lysates immunoprecipitated with M2 αFLAG agarose beads, blotted with αGFP; KALB lysis buffer (20mM Tris-HCl pH 8.0, 100mM KCl, 0.2 mM EDTA).

The target of assay [2] is Mrpl44, FLAG-tagged (Mrpl44FLAG) and GFP-tagged (Mrpl44GFP) copies co-transfected (mouse) (UniProt Q9CY73). Described as above.
The target of assay [3] is Mrpl44 (endogenous) (mouse (endogenous in NIH3T3)) (UniProt Q9CY73). As to the kind of experiment: co-IP; NIH3T3 whole cell extracts immunoprecipitated with rabbit αMrpl44 antibody (control: αrabbit Ig) on Protein G sepharose beads, blotted for Mrpl44, Mrpl12 and Mrps15; endogenous proteins.

Take “Mrpl44, FLAG-tagged (Mrpl44FLAG) and GFP-tagged (Mrpl44GFP) copies co-transfected (from UniProt Q9CY73 31-333)”: the binding result is “no binding” in assay [1] and “binds” in assay [2].

B1: Mrps15 (protein, UniProt Q9DC71 58-258)
chain: PVQPKQDDEPPSSAFIKEYKDIIPNIEKVDDVVKRILSLEMASRKEKLKIKQEQLMNKIVENPEDSRTLEAQIIALTVRIRNYEEHMQKHRKDKAHKRHLLMSIDRRKKLLKILRQTNYDVFEKTCKELGVEYTLPPLHFQKVHRRFLAKKALCIRVYQEVQKLKKQKRALKAAAAAAKKEKNEGVPENPSNAVPEKTQVN
In the case of B1, in assay [3], the binding entry is recorded as “binds”.
